PubChem BioAssay AID504786 | Drosophila RNAi Screening Center | 2011
The deposit covers about 21,000 reagents; this is a random part of those with a known target gene and a result. 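Primary screen; positive scores mean lost reporter signal, so the sign may be inverted from the usual convention.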 Names joined by + are all predicted targets of the reagent. No sequences are given here.

Assay: 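Fly genes required for HIF-dependent transcription when hypoxia is mimicked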 (primary screen)
Cell system: Drosophila S2 cells with a stable HIF luciferase reporter
Reagent: long dsRNA against Drosophila genes, about 0.2 µg dsRNA per well of a 384-well plate
Duration: three days of knock-down, then 20 h of DFO before reading
Treatment: desferrioxamine (DFO) at 100 µM, an iron chelator that mimics hypoxia, for 20 h
Measured: 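Firefly luciferase driven by the mouse ldh-a hypoxia-response element, measured after 20 h of 100 µM DFO; z-scores per plate, higher means more signal lost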
Reading the numbers: z-score: higher = stronger loss of HIF reporter signal

no.	Target gene	DRSC id	z-score, replicate 1	z-score, replicate 2	z-score, replicate 3	z-score, replicate 4
1	CNBP (GeneID 37646)	DRSC04116	-0.2	0.2		
2	CNBP (GeneID 37646)	DRSC04419	-0.3	-0.2	-0.6	-0.3
3	CG1537 (GeneID 32037)	DRSC19662	-0.4	-1.1		
4	Hsp67Bc (GeneID 39071)	DRSC11193	-0.2	-0.1		
5	nmdyn-D6 (GeneID 32396)	DRSC20355	-0.2	-1		
6	CG9795 (GeneID 40545)	DRSC12336	-0.1	0.4		
7	CG17029 (GeneID 39740)	DRSC10240	-0.3	0.5		
8	CG18735 (GeneID 59137)	DRSC04312	-0.3	-0.4		
9	CG16894 (GeneID 37280)	DRSC06634	-0.4	-0.1	-0.8	-0.3
10	CG8086 (GeneID 34131)	DRSC03078	-0.2	-0.2		
11	CG8086 (GeneID 34131)	DRSC03079	-0.3	-0.1		
12	pins (GeneID 53569)	DRSC17043	0	0.3		
13	Vm26Ac (GeneID 33828)	DRSC02329	-0.3	0.1		
14	CG8839 (GeneID 36340)	DRSC07285	-0.3	-0.3		
15	CG15412 (GeneID 33553)	DRSC00427	-0.3	-0.3		
16	TBC1D5 (GeneID 41628)	DRSC16421	-0.4	-0.7		
17	CG1637 (GeneID 32019)	DRSC18865	-0.3	-0.4		
18	CG1637 (GeneID 32019)	DRSC19748	-0.3	-0.4		
19	CG1637 (GeneID 32019)	DRSC19749	-0.2	-0.7		
20	CG15210 (GeneID 50323)	DRSC19656	-0.2	-0.6		
21	CG10877 (GeneID 42432)	DRSC14274	0.3	-1.3		
22	Pcd (GeneID 43499)	DRSC16785	-0.4	-0.3		
23	bor (GeneID 53565)	DRSC16915	-0.1	-0.1		
24	CG32437 (GeneID 40366)	DRSC11760	-0.3	-0.6		
25	CR10032 (GeneID 40877)	DRSC12499	-0.1	-0.5		
26	CG18530 (GeneID 59241)	DRSC15341	-0.4	-0.1		
27	CG15027 (GeneID 32440)	DRSC19608	-0.3	-0.5		
28	CG30458 (GeneID 246624)	DRSC06660	-0.4	-0.4		
29	CG2269 (GeneID 36056)	DRSC06833	-0.4	0.4		
30	CG14071 (GeneID 34507)	DRSC02374	-0.2	-0.4		
31	RhoGAP54D (GeneID 36996)	DRSC06990	-0.3	-0.1		
32	Qsox2 (GeneID 42583)	DRSC15287	-0.2	-0.2		
33	Rab3GAP1 (GeneID 33338)	DRSC00291	-0.3	-0.4		
34	Rab3GAP1 (GeneID 33338)	DRSC00703	-0.4	-0.1		
35	Ipp (GeneID 41701)	DRSC16718	-0.1	0.1		
36	CG5335 (GeneID 37140)	DRSC06931	-0.3	0.2		
37	crb (GeneID 42896)	DRSC16927	-0.2	-0.1		

Continued, starting with the last 11 of the part before.
no.	Target gene	DRSC id	z-score, replicate 1	z-score, replicate 2	z-score, replicate 3	z-score, replicate 4
27	CG15027 (GeneID 32440)	DRSC19608	-0.3	-0.5		
28	CG30458 (GeneID 246624)	DRSC06660	-0.4	-0.4		
29	CG2269 (GeneID 36056)	DRSC06833	-0.4	0.4		
30	CG14071 (GeneID 34507)	DRSC02374	-0.2	-0.4		
31	RhoGAP54D (GeneID 36996)	DRSC06990	-0.3	-0.1		
32	Qsox2 (GeneID 42583)	DRSC15287	-0.2	-0.2		
33	Rab3GAP1 (GeneID 33338)	DRSC00291	-0.3	-0.4		
34	Rab3GAP1 (GeneID 33338)	DRSC00703	-0.4	-0.1		
35	Ipp (GeneID 41701)	DRSC16718	-0.1	0.1		
36	CG5335 (GeneID 37140)	DRSC06931	-0.3	0.2		
37	crb (GeneID 42896)	DRSC16927	-0.2	-0.1		
38	Agpat4 (GeneID 39819)	DRSC10446	-0.1	0		
39	CG13876 (GeneID 38031)	DRSC08346	-0.3	-0.7		
40	ZnT41F (GeneID 35513)	DRSC04850	-0.2	0		
41	CG15452 (GeneID 33061)	DRSC20523	-0.2	-0.2		
42	SCAR (GeneID 34519)	DRSC03426	-0.2	0.1		
43	Hgsnat (GeneID 31423)	DRSC18405	-0.4	0.1		
44	Mnat9 (GeneID 43726)	DRSC14325	-0.3	0		
45	Elba2 (GeneID 33442)	DRSC00731	-0.3	-0.2		
46	CG30156 (GeneID 246488)	DRSC04959	-0.4	-0.3		
47	GluClalpha (GeneID 42350)	DRSC16680	-1.3	-1		
48	CG8046 (GeneID 35936)	DRSC07059	-0.4	-0.4		
49	px (GeneID 37573)	DRSC04708	-0.2	-1		
50	CG18139 (retired record) + Hmx	DRSC15307	0.1	0.8		
51	Cbp80 (GeneID 44409)	DRSC18450	1.4	1.9		
52	Tango4 (GeneID 32168)	DRSC19786	4.3	3.9		
53	CG11000 (GeneID 40721)	DRSC12158	-0.3	0.3		
54	Arfrp1 (GeneID 31841)	DRSC18417	-0.4	-0.6		
55	pippin (GeneID 37770)	DRSC04489	-0.3	-0.2		
56	CG30383 (GeneID 246583)	DRSC05062	-0.1	0		
57	CG31740 (GeneID 261618)	DRSC01619	-0.6	0.1		
58	ND-15 (GeneID 33179)	DRSC00311	0.1	0.4		
59	CG5446 (GeneID 34655)	DRSC02862	-0.4	3		
60	CG17361 (GeneID 39548)	DRSC10266	0.4	0.2		
61	slx1 (GeneID 40578)	DRSC12290	-0.2	-0.5		
62	TM4SF (GeneID 37786)	DRSC04661	-0.4	-0.1		
63	CG30283 (GeneID 37454)	DRSC04071	-0.3	-0.4		
64	CG31910 + snoRNA:Me28S-G2743 (retired record)	DRSC00946	-0.4	-0.2		
65	CG1468 (GeneID 31920)	DRSC17946	-0.3	-0.4		
66	Wdr33 (GeneID 40698)	DRSC12162	1.6	2.3		
67	CG10214 (GeneID 42811)	DRSC14213	-0.2	-0.4		
68	CG11317 (GeneID 43676)	DRSC14299	-0.4	-0.4		
69	BNIP3 (GeneID 40278)	DRSC11761	-0.2	-0.3		
70	SmydA-6 (GeneID 36917)	DRSC07341	-0.3	0		
71	DMAP1 (GeneID 37339)	DRSC06044	-0.2	-0.4		
72	CG32373 (GeneID 318000)	DRSC08895	-0.2	-0.2		
73	Orco (GeneID 40650)	DRSC12358	-0.3	-0.3		
74	CG14540 (GeneID 43145)	DRSC14884	-0.6	-0.9		
75	CG14913 (GeneID 34532)	DRSC02397	-0.2	0.3		
76	CG8927 (GeneID 41964)	DRSC16458	-0.5	0.6		
77	ALiX (GeneID 43330)	DRSC14564	-0.4	-0.7		
78	tey (GeneID 40146)	DRSC11042	-0.2	0	0.2	-0.2
79	slp1 (GeneID 33607)	DRSC00835	-0.4	-0.7		
80	CG9646 (GeneID 36918)	DRSC07342	-0.3	-0.1		
81	CG14312 (GeneID 42195)	DRSC14791	-0.4	-0.2		
82	CG8545 (GeneID 36365)	DRSC07210	0	0.3		
83	CG13928 (GeneID 38195)	DRSC08397	-0.2	-0.6		
